Values from PubChem BioAssay AID1259308 (NCATS, 2017).

Screen: 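Knock-downs that increase output of a recombinant reporter protein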 (primary screen)
System: human HEK293 embryonic kidney cells stably expressing firefly luciferase (HEK-CMV-Luc2-Hygro)
Knock-down reagent: single siRNA against human genes, 0.8 pmol siRNA per well
Time to read-out: 72 h
Measured: 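Luciferase light (ONE-Glo) measured on one replicate plate set and viability (CellTiter-Glo) on the other, scaled to a negative control siRNA, with robust z-scores and luciferase per cell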
Scale: total luciferase, z-score: higher = more reporter protein produced
Rule for the call: 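An siRNA counts as active if its total luciferase robust z-score exceeds 3; genes with two or more such siRNAs out of three were retested with fresh siRNAs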
Calls: active = raised luciferase; inactive = no rise
In all, the deposit lists about 59,000 reagents; below is a random part of them. About 1,510 of them (2.6%) count as active. 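Calls use total luciferase alone and ignore viability, so some active siRNAs may act by altering cell number.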 A number with no mark means an inactive call. The numbers tell different reagents against one gene apart. Further read-outs or replicates are left out here.

MOSPD1 (GeneID 56180) #1
- total luciferase, z-score: 0.284

MOSPD1 (GeneID 56180) #2
- total luciferase, z-score: 0.996

MOSPD1 (GeneID 56180) #3
- total luciferase, z-score: 0.782

MRFAP1 (GeneID 93621) #1
- total luciferase, z-score: 1.19

MRFAP1 (GeneID 93621) #2
- total luciferase, z-score: 0.466

MRFAP1 (GeneID 93621) #3
- total luciferase, z-score: 0.884

PPP2R2D (GeneID 55844) #1
- total luciferase, z-score: -0.161

PPP2R2D (GeneID 55844) #2
- total luciferase, z-score: 0.198

PPP2R2D (GeneID 55844) #3
- total luciferase, z-score: -2.1

ROM1 (GeneID 6094) #1
- total luciferase, z-score: 1.03

ROM1 (GeneID 6094) #2
- total luciferase, z-score: -0.345

ROM1 (GeneID 6094) #3
- total luciferase, z-score: -0.619

MRGPRX4 (GeneID 117196) #1
- total luciferase, z-score: 0.784

MRGPRX4 (GeneID 117196) #2
- total luciferase, z-score: -1.27

MRGPRX4 (GeneID 117196) #3
- total luciferase, z-score: 0.7

H1-8 (GeneID 132243) #1
- total luciferase, z-score: 0.0995

H1-8 (GeneID 132243) #2
- total luciferase, z-score: 2.46

H1-8 (GeneID 132243) #3
- total luciferase, z-score: -2.33

WHAMMP2 (GeneID 440253) #1
- total luciferase, z-score: -1.98

WHAMMP2 (GeneID 440253) #2
- total luciferase, z-score: -1.2

WHAMMP2 (GeneID 440253) #3
- total luciferase, z-score: 0.0214

LRSAM1 (GeneID 90678) #1
- total luciferase, z-score: 1.93

LRSAM1 (GeneID 90678) #2
- total luciferase, z-score: 0.852

LRSAM1 (GeneID 90678) #3
- total luciferase, z-score: 0.844

TBX19 (GeneID 9095) #1
- total luciferase, z-score: -0.308

TBX19 (GeneID 9095) #2
- total luciferase, z-score: -0.0849

TBX19 (GeneID 9095) #3
- total luciferase, z-score: -0.769

The list goes on, starting with the last 5 of the part before.
LRSAM1 (GeneID 90678) #2
- total luciferase, z-score: 0.852

LRSAM1 (GeneID 90678) #3
- total luciferase, z-score: 0.844

TBX19 (GeneID 9095) #1
- total luciferase, z-score: -0.308

TBX19 (GeneID 9095) #2
- total luciferase, z-score: -0.0849

TBX19 (GeneID 9095) #3
- total luciferase, z-score: -0.769

WNK1 (GeneID 65125) #1
- total luciferase, z-score: -0.778

WNK1 (GeneID 65125) #2
- total luciferase, z-score: -1.45

WNK1 (GeneID 65125) #3
- total luciferase, z-score: 1.13

WNK1 (GeneID 65125) #4
- total luciferase, z-score: -0.824

WNK1 (GeneID 65125) #5
- total luciferase, z-score: -0.486

WNK1 (GeneID 65125) #6
- total luciferase, z-score: 0.352

FZD3 (GeneID 7976) #1
- total luciferase, z-score: 0.503

FZD3 (GeneID 7976) #2
- total luciferase, z-score: 1.33

FZD3 (GeneID 7976) #3
- total luciferase, z-score: -0.794

STX17 (GeneID 55014) #1
- total luciferase, z-score: -1.29

STX17 (GeneID 55014) #2
- total luciferase, z-score: -1.23

STX17 (GeneID 55014) #3
- total luciferase, z-score: -1.31

TRMT6 (GeneID 51605) #1
- total luciferase, z-score: 1.84

TRMT6 (GeneID 51605) #2
- total luciferase, z-score: 1.1

TRMT6 (GeneID 51605) #3
- total luciferase, z-score: -0.278
